Measured values taken from patent US8685966B2, “GRP94 inhibitors” (University of Kansas, priority 2011, dated 2014).
Some results were stated once for a whole list of compounds, not compound by compound.

Assays:
Assay type in all cases: cell-based, human
[1] = test system: MCF7 (ER+) breast cancer cells; test: Anti-proliferative activity, MCF7; conditions: MCF7, at 100 μM
Experimental: (§1) As previously mentioned, it has been shown that Grp94 is not essential for tissue culture cell viability.^28 In contrast, loss of functional Hsp90α or Hsp90β results in cell death. Therefore, we investigated the anti-proliferative effects of compounds 1-5 against two breast cancer cells, MCF7 (ER+) and SKBR3 (Her2 overexpressing, ER—), and against the non-transformed HEK293 cells. […] To support these findings, western blot analyses of Hsp90α/β client proteins were performed from HEK293 cell lysates.

[2] = test system: SKBR3 (Her2 overexpressing, ER—) breast cancer cells; test: Anti-proliferative activity, SKBR3; conditions: SKBR3, at 100 μM
Experimental: as §1

[3] = test system: non-transformed HEK293 cells; test: Anti-proliferative activity, HEK293; conditions: HEK293, at 100 μM

SMILES: COC(=O)c1c(O)cc(O)c(Cl)c1CCc1nccn1Cc1ccccc1 [Compound 2, Methyl 2-(2-(1-benzyl-1H-imidazol-2-yl)ethyl)-3-chloro-4,6-dihydroxybenzoate]
- anti-proliferative activity [1]: None of the compounds evaluated manifested anti-proliferative activity
- anti-proliferative activity [2]: None of the compounds evaluated manifested anti-proliferative activity
- anti-proliferative activity [3]: None of the compounds evaluated manifested anti-proliferative activity
